Measured values reported in publication PMC12935919 (Frontiers in Pharmacology, 2026).
These are yes or no findings as the source states them, for the method shown. Some binding calls cover weakened binding; strength is not graded here. Where a sequence is shown, tags or fusion partners need not be part of it.

Molecular target: T1, human recombinant Myostatin-Fc protein (human) (UniProt O14793)
T1 sequence: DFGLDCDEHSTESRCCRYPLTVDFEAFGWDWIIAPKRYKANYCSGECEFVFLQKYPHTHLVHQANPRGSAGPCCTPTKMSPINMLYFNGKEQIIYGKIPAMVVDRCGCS
Assay: SPR; Biacore T200; Myostatin-Fc immobilised on a CM5 chip at 2210.3 RU by EDC/NHS amine coupling; Myoki injected at seven concentrations from 3.125 to 200 uM, 30 uL/min, 25 C, HBS-EP running buffer; equilibrium responses fitted to a steady-state affinity model; both purified

binding: binds
Binder: EAEYEHL [Myoki peptide]
